Measured values published in the supplement of paper PMC6078165.

Test system: Hs578T
Assay: relative JC-1 red fluorescence (viability) vs pre-drug, coculture with fibroblast (fraction); higher = more viable cancer cells
Details: 1 µM
Method: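 JC-1 labelled TNBC cells cocultured 1:1 (1,500 cells each) with CellTrace Violet stained primary or stromal fibroblasts in 384-well plates in FluoroBrite medium, treated with one of 42 anticancer drugs at 0.1, 1, 10 or 100 uM. JC-1 red fluorescence (mitochondrial integrity in cancer cells only) was read by plate reader every 8 h for 72 h. Values are normalised to each well's pre-drug value. The stock of one drug was tenfold lower, so its dose labels may be too high.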

Cc1c2oc3c(C)ccc(C(=O)N[C@@H]4C(=O)N[C@H](C(C)C)C(=O)N5CCC[C@H]5C(=O)N(C)CC(=O)N(C)[C@@H](C(C)C)C(=O)O[C@@H]4C)c3nc-2c(C(=O)N[C@@H]2C(=O)N[C@H](C(C)C)C(=O)N3CCC[C@H]3C(=O)N(C)CC(=O)N(C)[C@@H](C(C)C)C(=O)O[C@@H]2C)c(N)c1=O [Dactinomycin] (I: T[dV]P[Sar][NMeV] / II: T[dV]P[Sar][NMeV]; ester I:1-I:C, II:1-II:C; linker I:N-II:N via Actinocin(9to1))
Details	relative JC-1 red fluorescence
8 h	0.893
16 h	0.76
24 h	0.66562
32 h	0.6235
40 h	0.5564
48 h	0.527
56 h	0.532
64 h	0.516
72 h	0.521

relative JC-1 red fluorescence
Details	8 h	16 h	24 h	32 h	40 h	48 h	56 h	64 h	72 h
coculture fibroblast: C12385	0.79081	0.692	0.623	0.5412	0.48	0.445	0.413	0.4	0.396
coculture fibroblast: H6013	0.832	0.756	0.716	0.687	0.655	0.637	0.605	0.593	0.579
coculture fibroblast: H6019	0.7868	0.699	0.691	0.598	0.566	0.553	0.535	0.531	0.517
coculture fibroblast: H6076	0.874	0.767	0.689	0.662	0.602	0.579	0.546	0.542	0.54
coculture fibroblast: H6231	0.875	0.774	0.718	0.702	0.639	0.607	0.571	0.564	0.568
coculture fibroblast: HADF	0.808	0.746	0.698	0.661	0.627	0.602	0.573	0.564	0.548
coculture fibroblast: HCFa	0.825	0.727	0.662	0.604	0.549	0.532	0.499	0.491	0.457
coculture fibroblast: HCPF	0.899	0.808	0.7656	0.736	0.687	0.659	0.636	0.595	0.596
coculture fibroblast: HHSteC	0.846	0.774	0.723	0.69	0.667	0.66	0.673	0.664	0.651
coculture fibroblast: HMF	0.854	0.744	0.686	0.67	0.613	0.6	0.568	0.545	0.5288
coculture fibroblast: HPFa	0.834	0.743	0.71	0.675	0.644	0.637	0.615	0.607	0.573
coculture fibroblast: HUF	0.8465	0.695	0.684	0.588	0.541	0.517	0.49	0.478	0.463
coculture fibroblast: Hs27A	0.841	0.7556	0.706	0.661	0.594	0.5866	0.554	0.543	0.497
coculture fibroblast: Hs343T	0.865	0.745	0.673	0.62	0.56	0.533	0.505	0.495	0.495
coculture fibroblast: WS1	0.756	0.681	0.646	0.566	0.517	0.504	0.488	0.491	0.495

The reference is the same well before dosing, and untreated signal decays as well.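 Labels refer to human fibroblasts, largely primary: uterine (C12385, HUF), lung (H6013), bone (Hs27A), adrenal (HADF), skin (WS1), plus mammary HMF and breast cancer-associated Hs343T. Cancer lines are basal-like or mesenchymal-like triple-negative breast cancer. The paper counts as hits responses shifting over 3x the replicate standard deviation. The tissue of the other fibroblasts is not given here.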 Numbered stars: 1 amine (or outer) side, 2 acyl side, 3 side chain; on linkers, the order of the positions; unused ones are H or OH. Bridge positions count the residues as written; N and C are the ends. Square brackets hold non-standard residues; d marks the D form. Peptide text beside a SMILES is read from it. I, II: the chains in the order shown. Actinocin(9to1) = Cc1c2oc3c(C)ccc(C(=O)[*:1])c3nc-2c(C(=O)[*:2])c(N)c1=O; NMeV = CN[C@H](C(=O)O)C(C)C; Sar = CNCC(=O)O
